Reference: the supplement of paper PMC7661543
± gives the standard deviation of the averaged measurements. The effect of the compound repeats well; differences between the knockouts mostly do not.

Test system: MDA-MB-231
Assay: relative cell number vs DMSO control (72 h) (% of DMSO); higher = less growth inhibition (more cells)
Method: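 QMAP-Seq: a pool of 5 breast cancer cell lines (ZR-75-1, SKBR3, HCC-38, MDA-MB-231, BT-20), each carrying 12 doxycycline-inducible Cas9 sgRNA perturbations (11 knockouts plus non-targeting sgNT), was treated with compounds for 72 h at four 10-fold doses (10 nM-10 uM or 1 nM-1 uM range). Barcodes were amplified and sequenced, and cell number was interpolated from 293T spike-in standard curves. The result is expressed as % of the median of DMSO wells. Two biological replicates.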

O=C1NC(=O)[C@@H](c2cn3c4c(cccc24)CCC3)[C@@H]1c1c[nH]c2ccccc12 [Tivantinib]
Conditions	relative cell number
sgRNA knockout: sgATF3, 10 nM	103 ± 1.7
sgRNA knockout: sgATF3, 100 nM	87.2 ± 18
sgRNA knockout: sgATF3, 1000 nM	38.4 ± 15
sgRNA knockout: sgATF3, 10000 nM	34.7 ± 10
sgRNA knockout: sgATF4, 10 nM	106 ± 44
sgRNA knockout: sgATF4, 100 nM	55.3 ± 16
sgRNA knockout: sgATF4, 1000 nM	27.1 ± 3.4
sgRNA knockout: sgATF4, 10000 nM	16.3 ± 6.5
sgRNA knockout: sgATF6, 10 nM	104 ± 4.5
sgRNA knockout: sgATF6, 100 nM	99.1 ± 4.4
sgRNA knockout: sgATF6, 1000 nM	39.1 ± 4.8
sgRNA knockout: sgATF6, 10000 nM	31.2 ± 3.7
sgRNA knockout: sgATG7, 10 nM	92.2 ± 1.2
sgRNA knockout: sgATG7, 100 nM	78.4 ± 28
sgRNA knockout: sgATG7, 1000 nM	34 ± 4
sgRNA knockout: sgATG7, 10000 nM	27.4 ± 5.2
sgRNA knockout: sgERN1, 10 nM	102 ± 13
sgRNA knockout: sgERN1, 100 nM	76.2 ± 15
sgRNA knockout: sgERN1, 1000 nM	48.1 ± 7.8
sgRNA knockout: sgERN1, 10000 nM	30.6 ± 15
sgRNA knockout: sgHSF1, 10 nM	99.4 ± 26
sgRNA knockout: sgHSF1, 100 nM	101 ± 26
sgRNA knockout: sgHSF1, 1000 nM	36.6 ± 7
sgRNA knockout: sgHSF1, 10000 nM	21.5 ± 2.5
sgRNA knockout: sgHSF2, 10 nM	94.6 ± 10
sgRNA knockout: sgHSF2, 100 nM	64.3 ± 5.3
sgRNA knockout: sgHSF2, 1000 nM	39.4 ± 5.5
sgRNA knockout: sgHSF2, 10000 nM	29.3 ± 10
sgRNA knockout: sgKEAP1, 10 nM	90.4 ± 19
sgRNA knockout: sgKEAP1, 100 nM	85.7 ± 16
sgRNA knockout: sgKEAP1, 1000 nM	40.2 ± 4.9
sgRNA knockout: sgKEAP1, 10000 nM	23.8 ± 4.8
sgRNA knockout: sgNFE2L2, 10 nM	97.9 ± 7.4
sgRNA knockout: sgNFE2L2, 100 nM	88.2 ± 8.1
sgRNA knockout: sgNFE2L2, 1000 nM	40.3 ± 5.4
sgRNA knockout: sgNFE2L2, 10000 nM	30.4 ± 5.2
sgRNA knockout: sgSLC35F2, 10 nM	82.2 ± 11
sgRNA knockout: sgSLC35F2, 100 nM	93.4 ± 6.8
sgRNA knockout: sgSLC35F2, 1000 nM	41.2 ± 2.3
sgRNA knockout: sgSLC35F2, 10000 nM	26 ± 9.6
sgRNA knockout: sgXBP1, 10 nM	101 ± 32
sgRNA knockout: sgXBP1, 100 nM	98.32 ± 0.81
sgRNA knockout: sgXBP1, 1000 nM	34.6 ± 2.2
sgRNA knockout: sgXBP1, 10000 nM	21.3 ± 0.74

CS(=O)(=O)N1CCN(Cc2cc3nc(-c4cccc5[nH]ncc45)nc(N4CCOCC4)c3s2)CC1 [GDC0941]
Conditions	relative cell number
sgRNA knockout: sgATF3, 10 nM	107 ± 6.5
sgRNA knockout: sgATF3, 100 nM	91.8 ± 46
sgRNA knockout: sgATF3, 1000 nM	73.2 ± 19
sgRNA knockout: sgATF3, 10000 nM	60 ± 14
sgRNA knockout: sgATF4, 10 nM	139 ± 5.3
sgRNA knockout: sgATF4, 100 nM	88 ± 10
sgRNA knockout: sgATF4, 1000 nM	75.2 ± 16
sgRNA knockout: sgATF4, 10000 nM	71.2 ± 24
sgRNA knockout: sgATF6, 10 nM	91.1 ± 6.6
sgRNA knockout: sgATF6, 100 nM	95.3 ± 1.5
sgRNA knockout: sgATF6, 1000 nM	98.3 ± 10
sgRNA knockout: sgATF6, 10000 nM	49.1 ± 11
sgRNA knockout: sgATG7, 10 nM	98.4 ± 1
sgRNA knockout: sgATG7, 100 nM	113 ± 7.7
sgRNA knockout: sgATG7, 1000 nM	84.2 ± 8.8
sgRNA knockout: sgATG7, 10000 nM	47.3 ± 8.3
sgRNA knockout: sgERN1, 10 nM	83.7 ± 7.9
sgRNA knockout: sgERN1, 100 nM	104 ± 9.5
sgRNA knockout: sgERN1, 1000 nM	77.8 ± 21
sgRNA knockout: sgERN1, 10000 nM	47.5 ± 5.5
sgRNA knockout: sgHSF1, 10 nM	105.2 ± 0.11
sgRNA knockout: sgHSF1, 100 nM	89.7 ± 26
sgRNA knockout: sgHSF1, 1000 nM	70.2 ± 11
sgRNA knockout: sgHSF1, 10000 nM	47.1 ± 17
sgRNA knockout: sgHSF2, 10 nM	118 ± 20
sgRNA knockout: sgHSF2, 100 nM	99.1 ± 20
sgRNA knockout: sgHSF2, 1000 nM	62.2 ± 2.8
sgRNA knockout: sgHSF2, 10000 nM	45 ± 12
sgRNA knockout: sgKEAP1, 10 nM	90.7 ± 5.9
sgRNA knockout: sgKEAP1, 100 nM	85.8 ± 38
sgRNA knockout: sgKEAP1, 1000 nM	72.9 ± 21
sgRNA knockout: sgKEAP1, 10000 nM	46.1 ± 13
sgRNA knockout: sgNFE2L2, 10 nM	93.4 ± 22
sgRNA knockout: sgNFE2L2, 100 nM	86 ± 3.7
sgRNA knockout: sgNFE2L2, 1000 nM	94.9 ± 14
sgRNA knockout: sgNFE2L2, 10000 nM	44.6 ± 17
sgRNA knockout: sgSLC35F2, 10 nM	81.6 ± 5.3
sgRNA knockout: sgSLC35F2, 100 nM	83.5 ± 11
sgRNA knockout: sgSLC35F2, 1000 nM	91 ± 33
sgRNA knockout: sgSLC35F2, 10000 nM	48 ± 16
sgRNA knockout: sgXBP1, 10 nM	92 ± 23
sgRNA knockout: sgXBP1, 100 nM	88.5 ± 22
sgRNA knockout: sgXBP1, 1000 nM	75.3 ± 9
sgRNA knockout: sgXBP1, 10000 nM	41.5 ± 4.8

OCc1ccc(-c2ccc(-c3ccc(CO)s3)o2)s1
Conditions	relative cell number
sgRNA knockout: sgATF3, 10 nM	143 ± 42
sgRNA knockout: sgATF3, 100 nM	116 ± 11
sgRNA knockout: sgATF3, 1000 nM	80.3 ± 24
sgRNA knockout: sgATF3, 10000 nM	35.9 ± 13
sgRNA knockout: sgATF4, 10 nM	207 ± 99
sgRNA knockout: sgATF4, 100 nM	110 ± 30
sgRNA knockout: sgATF4, 1000 nM	131 ± 4.6
sgRNA knockout: sgATF4, 10000 nM	55 ± 17
sgRNA knockout: sgATF6, 10 nM	112 ± 50
sgRNA knockout: sgATF6, 100 nM	90.5 ± 19
sgRNA knockout: sgATF6, 1000 nM	64.3 ± 2.4
sgRNA knockout: sgATF6, 10000 nM	39 ± 16
sgRNA knockout: sgATG7, 10 nM	122 ± 9.1
sgRNA knockout: sgATG7, 100 nM	78.6 ± 1.9
sgRNA knockout: sgATG7, 1000 nM	106 ± 20
sgRNA knockout: sgATG7, 10000 nM	38.7 ± 8.4
sgRNA knockout: sgERN1, 10 nM	122 ± 18
sgRNA knockout: sgERN1, 100 nM	79.8 ± 1.3
sgRNA knockout: sgERN1, 1000 nM	90 ± 8.2
sgRNA knockout: sgERN1, 10000 nM	37.8 ± 8
sgRNA knockout: sgHSF1, 10 nM	105 ± 16
sgRNA knockout: sgHSF1, 100 nM	95 ± 6.3
sgRNA knockout: sgHSF1, 1000 nM	85.3 ± 25
sgRNA knockout: sgHSF1, 10000 nM	38.9 ± 8.7
sgRNA knockout: sgHSF2, 10 nM	104 ± 32
sgRNA knockout: sgHSF2, 100 nM	97.6 ± 20
sgRNA knockout: sgHSF2, 1000 nM	83.1 ± 8.1
sgRNA knockout: sgHSF2, 10000 nM	41.9 ± 4.5
sgRNA knockout: sgKEAP1, 10 nM	124 ± 31
sgRNA knockout: sgKEAP1, 100 nM	130 ± 9.8
sgRNA knockout: sgKEAP1, 1000 nM	90.1 ± 13
sgRNA knockout: sgKEAP1, 10000 nM	37.5 ± 16
sgRNA knockout: sgNFE2L2, 10 nM	110 ± 37
sgRNA knockout: sgNFE2L2, 100 nM	104 ± 12
sgRNA knockout: sgNFE2L2, 1000 nM	90.7 ± 5.2
sgRNA knockout: sgNFE2L2, 10000 nM	47.9 ± 28
sgRNA knockout: sgSLC35F2, 10 nM	113 ± 36
sgRNA knockout: sgSLC35F2, 100 nM	84.9 ± 28
sgRNA knockout: sgSLC35F2, 1000 nM	86.6 ± 6.7
sgRNA knockout: sgSLC35F2, 10000 nM	40.2 ± 7.6
sgRNA knockout: sgXBP1, 10 nM	118 ± 2.5
sgRNA knockout: sgXBP1, 100 nM	96.6 ± 22
sgRNA knockout: sgXBP1, 1000 nM	95.7 ± 6
sgRNA knockout: sgXBP1, 10000 nM	39.1 ± 13
